The other results are listed elsewhere or left out.
Experiments:
Assay in all cases: log2 fold change, soluble protein after heating vs DMSO (PISA); higher = thermal stabilisation; K562 cells, 10 uM, 30 min; active = over 0.2 and 3.5 SD of the protein, either way, in both replicates (recomputed)
[1] = compound: COC1=CC=C(C=C1)CN2C=CC3=C2C=C(C=C3)C(=O)NO
Summary of the method: (§1)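 Values are thermal stability changes relative to control samples and are taken from duplicates. They are stated as log2 fold changes. Before quantification by TMTpro 16plex LC-MS/MS with equalised channel sums, K562 cells at 2×10^6 cells/mL were treated with 10 μM compound for 30 min, heated in aliquots for 3 min across 48°C-58°C, pooled, extracted in PBS with 0.5% NP-40 at 4°C, and centrifuged at 21,000xg for 90 min to give the soluble supernatant.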

Sequences of proteins named here, by UniProt entry; tags and fusion partners are left off. A change or cut given only in a name is not applied to a line headed by its entry.
UniProt P17066, whole entry, looked up: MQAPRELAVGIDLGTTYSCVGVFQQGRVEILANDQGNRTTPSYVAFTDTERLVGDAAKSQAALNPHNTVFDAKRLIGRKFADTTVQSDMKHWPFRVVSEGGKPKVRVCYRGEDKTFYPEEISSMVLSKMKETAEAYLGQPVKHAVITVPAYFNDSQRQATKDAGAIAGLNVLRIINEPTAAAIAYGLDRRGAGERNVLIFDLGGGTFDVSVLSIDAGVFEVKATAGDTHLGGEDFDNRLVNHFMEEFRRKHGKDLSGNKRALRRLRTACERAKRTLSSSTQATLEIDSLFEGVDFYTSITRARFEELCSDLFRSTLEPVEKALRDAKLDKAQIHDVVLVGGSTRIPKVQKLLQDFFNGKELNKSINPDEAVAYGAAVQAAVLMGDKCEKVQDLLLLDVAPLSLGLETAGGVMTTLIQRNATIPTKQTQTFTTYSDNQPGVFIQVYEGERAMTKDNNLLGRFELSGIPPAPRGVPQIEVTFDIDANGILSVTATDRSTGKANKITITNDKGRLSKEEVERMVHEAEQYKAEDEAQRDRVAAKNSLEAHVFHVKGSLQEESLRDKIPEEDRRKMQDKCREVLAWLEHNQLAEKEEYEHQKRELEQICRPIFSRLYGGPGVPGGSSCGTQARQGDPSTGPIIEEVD
UniProt O14979: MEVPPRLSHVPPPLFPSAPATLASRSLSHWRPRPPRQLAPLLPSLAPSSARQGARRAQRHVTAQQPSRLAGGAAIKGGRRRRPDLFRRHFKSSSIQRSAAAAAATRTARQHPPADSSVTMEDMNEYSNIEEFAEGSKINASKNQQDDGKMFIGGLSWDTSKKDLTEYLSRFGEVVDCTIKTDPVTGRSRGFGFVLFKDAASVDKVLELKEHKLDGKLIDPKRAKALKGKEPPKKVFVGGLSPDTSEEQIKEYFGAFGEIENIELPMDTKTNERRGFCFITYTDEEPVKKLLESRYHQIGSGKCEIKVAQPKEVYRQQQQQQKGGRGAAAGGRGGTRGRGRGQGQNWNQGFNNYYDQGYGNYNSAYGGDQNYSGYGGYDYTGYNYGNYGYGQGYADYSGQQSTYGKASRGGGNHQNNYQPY
UniProt P04792, whole entry, looked up: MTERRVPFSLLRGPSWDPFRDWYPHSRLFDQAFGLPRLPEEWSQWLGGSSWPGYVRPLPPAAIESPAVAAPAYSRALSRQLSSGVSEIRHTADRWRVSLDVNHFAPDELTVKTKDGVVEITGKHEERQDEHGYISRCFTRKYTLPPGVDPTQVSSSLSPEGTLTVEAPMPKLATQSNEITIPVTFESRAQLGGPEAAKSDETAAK
UniProt Q9BW71: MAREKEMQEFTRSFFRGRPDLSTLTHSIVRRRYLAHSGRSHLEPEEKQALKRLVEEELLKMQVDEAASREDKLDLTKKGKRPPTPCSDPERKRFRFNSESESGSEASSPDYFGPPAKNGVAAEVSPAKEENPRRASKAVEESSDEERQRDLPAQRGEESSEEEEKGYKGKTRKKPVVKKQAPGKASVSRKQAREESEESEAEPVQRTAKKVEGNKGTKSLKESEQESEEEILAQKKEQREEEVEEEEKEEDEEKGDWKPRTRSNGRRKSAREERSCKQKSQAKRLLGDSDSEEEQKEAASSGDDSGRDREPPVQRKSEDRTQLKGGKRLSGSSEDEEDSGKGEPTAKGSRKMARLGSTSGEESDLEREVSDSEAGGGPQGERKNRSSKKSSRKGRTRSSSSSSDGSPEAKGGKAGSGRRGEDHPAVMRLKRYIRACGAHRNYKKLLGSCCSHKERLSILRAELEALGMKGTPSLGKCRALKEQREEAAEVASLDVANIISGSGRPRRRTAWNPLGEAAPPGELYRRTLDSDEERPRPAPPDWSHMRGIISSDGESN
UniProt P56937: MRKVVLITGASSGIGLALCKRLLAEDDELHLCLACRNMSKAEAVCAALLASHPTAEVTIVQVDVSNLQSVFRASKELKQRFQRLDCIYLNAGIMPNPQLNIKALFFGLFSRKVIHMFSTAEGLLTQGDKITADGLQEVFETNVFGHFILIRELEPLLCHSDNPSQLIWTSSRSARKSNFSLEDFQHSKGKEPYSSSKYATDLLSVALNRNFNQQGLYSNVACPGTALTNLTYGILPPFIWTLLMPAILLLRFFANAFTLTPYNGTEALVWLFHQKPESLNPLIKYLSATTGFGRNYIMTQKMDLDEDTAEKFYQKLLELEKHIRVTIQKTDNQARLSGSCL
UniProt Q8NBQ5: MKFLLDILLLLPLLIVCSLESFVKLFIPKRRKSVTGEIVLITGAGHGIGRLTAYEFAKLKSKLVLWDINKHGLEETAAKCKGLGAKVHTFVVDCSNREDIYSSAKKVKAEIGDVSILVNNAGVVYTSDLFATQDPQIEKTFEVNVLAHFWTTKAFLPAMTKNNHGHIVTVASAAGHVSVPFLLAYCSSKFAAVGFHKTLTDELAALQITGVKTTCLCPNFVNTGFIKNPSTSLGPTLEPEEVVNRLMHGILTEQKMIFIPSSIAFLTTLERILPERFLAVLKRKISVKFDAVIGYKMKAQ
UniProt Q15651: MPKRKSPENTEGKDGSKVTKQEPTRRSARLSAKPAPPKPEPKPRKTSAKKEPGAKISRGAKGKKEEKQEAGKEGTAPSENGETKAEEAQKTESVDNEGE
UniProt O14964, whole entry, looked up: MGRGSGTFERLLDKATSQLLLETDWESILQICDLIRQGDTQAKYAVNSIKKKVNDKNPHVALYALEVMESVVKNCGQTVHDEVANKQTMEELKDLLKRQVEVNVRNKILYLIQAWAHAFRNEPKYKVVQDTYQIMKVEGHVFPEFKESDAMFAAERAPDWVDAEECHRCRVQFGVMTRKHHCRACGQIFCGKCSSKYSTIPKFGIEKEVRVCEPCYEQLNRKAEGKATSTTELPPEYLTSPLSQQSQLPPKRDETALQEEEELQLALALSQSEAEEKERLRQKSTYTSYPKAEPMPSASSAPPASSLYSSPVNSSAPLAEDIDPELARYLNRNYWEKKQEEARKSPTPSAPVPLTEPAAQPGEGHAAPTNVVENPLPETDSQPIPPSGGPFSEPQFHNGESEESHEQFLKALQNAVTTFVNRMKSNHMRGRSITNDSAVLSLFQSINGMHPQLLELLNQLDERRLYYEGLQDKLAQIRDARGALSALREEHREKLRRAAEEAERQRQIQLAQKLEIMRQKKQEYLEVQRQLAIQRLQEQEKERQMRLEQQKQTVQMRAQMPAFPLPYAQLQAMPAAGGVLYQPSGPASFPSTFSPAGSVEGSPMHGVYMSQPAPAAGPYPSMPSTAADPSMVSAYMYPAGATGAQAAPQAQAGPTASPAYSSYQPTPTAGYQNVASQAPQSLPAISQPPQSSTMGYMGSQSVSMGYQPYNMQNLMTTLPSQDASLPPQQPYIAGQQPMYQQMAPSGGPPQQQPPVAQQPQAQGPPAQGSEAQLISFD
UniProt Q9Y4L1: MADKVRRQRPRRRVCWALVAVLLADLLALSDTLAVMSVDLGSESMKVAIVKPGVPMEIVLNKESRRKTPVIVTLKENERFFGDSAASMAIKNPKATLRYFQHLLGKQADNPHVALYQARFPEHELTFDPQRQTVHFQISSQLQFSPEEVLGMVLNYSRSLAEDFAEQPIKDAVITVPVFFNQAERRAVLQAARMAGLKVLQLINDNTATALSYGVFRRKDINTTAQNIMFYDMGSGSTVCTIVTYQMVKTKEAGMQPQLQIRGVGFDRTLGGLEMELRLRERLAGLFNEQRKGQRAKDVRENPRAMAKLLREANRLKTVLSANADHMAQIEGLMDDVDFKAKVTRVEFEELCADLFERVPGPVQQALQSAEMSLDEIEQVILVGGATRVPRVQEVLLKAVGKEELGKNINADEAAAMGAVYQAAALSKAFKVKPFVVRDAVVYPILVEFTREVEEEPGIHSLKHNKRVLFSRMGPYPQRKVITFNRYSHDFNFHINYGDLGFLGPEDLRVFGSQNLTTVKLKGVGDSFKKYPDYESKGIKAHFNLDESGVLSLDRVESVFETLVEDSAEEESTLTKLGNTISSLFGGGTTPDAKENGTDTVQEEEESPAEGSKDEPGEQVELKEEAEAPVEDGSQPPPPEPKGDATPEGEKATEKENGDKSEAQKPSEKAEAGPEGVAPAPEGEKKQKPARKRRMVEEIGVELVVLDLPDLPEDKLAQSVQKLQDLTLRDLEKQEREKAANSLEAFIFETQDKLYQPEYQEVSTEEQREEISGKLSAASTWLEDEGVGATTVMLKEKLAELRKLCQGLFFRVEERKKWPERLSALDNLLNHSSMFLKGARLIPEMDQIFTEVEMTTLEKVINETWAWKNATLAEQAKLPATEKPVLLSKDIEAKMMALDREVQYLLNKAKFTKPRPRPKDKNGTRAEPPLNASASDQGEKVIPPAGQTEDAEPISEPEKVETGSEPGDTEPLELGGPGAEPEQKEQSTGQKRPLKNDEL
UniProt Q14103: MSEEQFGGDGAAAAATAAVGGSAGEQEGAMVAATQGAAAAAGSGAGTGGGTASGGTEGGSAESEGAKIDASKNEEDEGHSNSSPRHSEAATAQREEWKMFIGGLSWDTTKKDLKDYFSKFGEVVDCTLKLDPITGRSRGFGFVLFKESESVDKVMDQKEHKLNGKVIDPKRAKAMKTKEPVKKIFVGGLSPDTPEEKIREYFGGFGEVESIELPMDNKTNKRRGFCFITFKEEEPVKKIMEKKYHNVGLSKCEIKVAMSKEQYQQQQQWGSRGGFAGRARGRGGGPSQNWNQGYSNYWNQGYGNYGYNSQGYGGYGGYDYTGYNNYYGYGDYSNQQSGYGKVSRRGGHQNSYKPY
UniProt O60921: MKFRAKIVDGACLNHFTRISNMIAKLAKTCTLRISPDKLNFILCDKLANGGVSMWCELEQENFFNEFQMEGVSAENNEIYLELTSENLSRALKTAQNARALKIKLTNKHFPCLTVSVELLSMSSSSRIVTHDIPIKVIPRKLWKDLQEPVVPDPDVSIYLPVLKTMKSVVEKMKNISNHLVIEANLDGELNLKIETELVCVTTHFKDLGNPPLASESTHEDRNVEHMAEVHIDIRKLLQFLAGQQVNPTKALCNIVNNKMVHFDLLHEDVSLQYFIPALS
UniProt Q3SXM5: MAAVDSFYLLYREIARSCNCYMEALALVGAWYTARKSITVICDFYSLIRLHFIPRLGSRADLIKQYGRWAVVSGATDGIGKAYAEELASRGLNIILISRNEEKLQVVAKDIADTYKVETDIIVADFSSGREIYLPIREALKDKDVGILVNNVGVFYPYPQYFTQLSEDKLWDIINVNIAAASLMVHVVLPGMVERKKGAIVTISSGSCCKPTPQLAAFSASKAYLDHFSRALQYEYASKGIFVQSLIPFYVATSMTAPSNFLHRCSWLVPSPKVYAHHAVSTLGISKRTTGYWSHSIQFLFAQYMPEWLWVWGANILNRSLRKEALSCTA
UniProt Q9Y547: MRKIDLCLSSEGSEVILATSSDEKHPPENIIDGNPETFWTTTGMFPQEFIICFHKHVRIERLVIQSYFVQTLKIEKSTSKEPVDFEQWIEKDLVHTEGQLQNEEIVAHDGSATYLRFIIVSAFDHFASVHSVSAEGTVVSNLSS
UniProt P51659: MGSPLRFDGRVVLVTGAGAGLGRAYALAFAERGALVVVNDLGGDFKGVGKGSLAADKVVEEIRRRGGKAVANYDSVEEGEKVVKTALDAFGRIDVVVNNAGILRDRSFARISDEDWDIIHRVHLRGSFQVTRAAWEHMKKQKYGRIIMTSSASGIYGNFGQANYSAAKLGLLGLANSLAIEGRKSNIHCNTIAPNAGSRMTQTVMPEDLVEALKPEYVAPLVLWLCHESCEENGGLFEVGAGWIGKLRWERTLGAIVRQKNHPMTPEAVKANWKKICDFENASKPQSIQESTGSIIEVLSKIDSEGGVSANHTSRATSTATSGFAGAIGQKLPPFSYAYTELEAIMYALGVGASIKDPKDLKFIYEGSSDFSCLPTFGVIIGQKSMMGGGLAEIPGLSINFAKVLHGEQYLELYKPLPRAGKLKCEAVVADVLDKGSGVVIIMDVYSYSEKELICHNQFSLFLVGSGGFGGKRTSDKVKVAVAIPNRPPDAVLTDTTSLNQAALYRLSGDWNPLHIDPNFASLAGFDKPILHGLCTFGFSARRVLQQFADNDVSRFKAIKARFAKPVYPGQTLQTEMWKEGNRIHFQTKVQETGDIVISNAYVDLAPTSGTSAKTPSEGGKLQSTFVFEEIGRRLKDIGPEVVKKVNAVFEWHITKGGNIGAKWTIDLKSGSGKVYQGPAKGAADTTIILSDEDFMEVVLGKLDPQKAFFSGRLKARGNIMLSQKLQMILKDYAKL
UniProt Q13151: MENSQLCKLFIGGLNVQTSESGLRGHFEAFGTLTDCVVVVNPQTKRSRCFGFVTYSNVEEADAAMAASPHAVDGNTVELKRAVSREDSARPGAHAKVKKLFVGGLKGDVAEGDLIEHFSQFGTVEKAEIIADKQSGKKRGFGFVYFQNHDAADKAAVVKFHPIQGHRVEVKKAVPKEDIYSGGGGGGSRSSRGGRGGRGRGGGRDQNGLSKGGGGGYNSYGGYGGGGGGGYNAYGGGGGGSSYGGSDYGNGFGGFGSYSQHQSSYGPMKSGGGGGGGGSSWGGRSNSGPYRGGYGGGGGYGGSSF

filanesib = compound: CON(C)C(=O)N1N=C(c2cc(F)ccc2F)S[C@@]1(CCCN)c1ccccc1 [filanesib]
Summary of the method: as §1

zotarolimus = compound: CO[C@H]1C[C@@H]2CC[C@@H](C)[C@@](O)(O2)C(=O)C(=O)N2CCCC[C@H]2C(=O)O[C@H]([C@H](C)C[C@@H]2CC[C@H](n3cnnn3)[C@H](OC)C2)CC(=O)[C@H](C)/C=C(\C)[C@@H](O)[C@@H](OC)C(=O)[C@H](C)C[C@H](C)/C=C/C=C/C=C/1C [zotarolimus]
Summary of the method: as §1

idasanutlin = compound: COc1cc(C(=O)O)ccc1NC(=O)[C@@H]1N[C@@H](CC(C)(C)C)[C@](C#N)(c2ccc(Cl)cc2F)[C@H]1c1cccc(Cl)c1F [idasanutlin]
Summary of the method: as §1

alisertib = compound: COc1cc(Nc2ncc3c(n2)-c2ccc(Cl)cc2C(c2c(F)cccc2OC)=NC3)ccc1C(=O)O [alisertib]
Summary of the method: as §1

[2] = compound: COc1cc2nc(-c3cc(F)ccc3O)nc(N[C@@H]3CNC[C@H]3C(C)(C)O)c2cc1OC
Summary of the method: as §1

gefitinib = compound: COc1cc2ncnc(Nc3ccc(F)c(Cl)c3)c2cc1OCCCN1CCOCC1 [gefitinib]
Summary of the method: as §1

[3] = compound: COc1cccc2cc(-c3nc([C@H]4CC[C@H](C(=O)O)CC4)n4ncnc(N)c34)[nH]c12
Summary of the method: as §1

lapatinib = compound: CS(=O)(=O)CCNCc1ccc(-c2ccc3ncnc(Nc4ccc(OCc5cccc(F)c5)c(Cl)c4)c3c2)o1 [lapatinib]
Summary of the method: as §1

pictilisib = compound: CS(=O)(=O)N1CCN(Cc2cc3nc(-c4cccc5[nH]ncc45)nc(N4CCOCC4)c3s2)CC1 [pictilisib]
Summary of the method: as §1

[4] = compound: CS(=O)(=O)c1ccc(-c2cnc(N)c(C(=O)Nc3ccccc3)n2)cc1
Summary of the method: as §1

crizotinib = compound: C[C@@H](Oc1cc(-c2cnn(C3CCNCC3)c2)cnc1N)c1c(Cl)ccc(F)c1Cl [crizotinib]
Summary of the method: as §1

[5] = compound: C[C@@H]1COCCN1C2=NC(=NC(=C2)C3(CC3)S(=O)(=O)C)C4=C5C=CNC5=CC=C4
Summary of the method: as §1

[6] = compound: C[C@H](C1=CC=C(C=C1)C(=O)NC2=C3C=CNC3=NC=C2)N
Summary of the method: as §1

duvelisib = compound: C[C@H](Nc1ncnc2nc[nH]c12)c1cc2cccc(Cl)c2c(=O)n1-c1ccccc1 [duvelisib]
Summary of the method: as §1

gandotinib = compound: Cc1cc(Nc2cc(CN3CCOCC3)c3nc(C)c(Cc4ccc(Cl)cc4F)n3n2)n[nH]1 [gandotinib]
Summary of the method: as §1

tozasertib = compound: Cc1cc(Nc2cc(N3CCN(C)CC3)nc(Sc3ccc(NC(=O)C4CC4)cc3)n2)n[nH]1 [tozasertib]
Summary of the method: as §1

[7] = compound: Cc1cc(SCc2sc(-c3ccc(C(F)(F)F)cc3)nc2C)ccc1OCC(=O)O
Summary of the method: as §1

doramapimod = compound: Cc1ccc(-n2nc(C(C)(C)C)cc2NC(=O)Nc2ccc(OCCN3CCOCC3)c3ccccc23)cc1 [doramapimod]
Summary of the method: as §1

ispinesib = compound: Cc1ccc(C(=O)N(CCCN)[C@@H](c2nc3cc(Cl)ccc3c(=O)n2Cc2ccccc2)C(C)C)cc1 [ispinesib]
Summary of the method: as §1

Measured: log2 fold change

HSPA6 (UniProt P17066)
inactive: [1] 0.027 | filanesib 0.006 | zotarolimus -0.022 | idasanutlin -0.011 | alisertib -0.077 | [2] 0.036 | gefitinib -0.004 | [3] -0.016 | lapatinib -0.062 | pictilisib 0.01 | [4] 0.019 | crizotinib 0.021 | [5] -0.064 | [6] 0.003 | duvelisib -0.022 | gandotinib 0.001 | tozasertib -0.002 | [7] -0.047 | doramapimod -0.108 | ispinesib 0.011

HNRNPDL (UniProt O14979)
inactive: [1] -0.089 | filanesib 0.227 | zotarolimus -0.049 | idasanutlin 0.128 | alisertib -0.07 | [2] 0.032 | gefitinib -0.034 | [3] -0.084 | lapatinib 0.044 | pictilisib -0.032 | [4] -0.123 | crizotinib 0.041 | [5] -0.318 | [6] 0.25 | duvelisib -0.088 | gandotinib 0.159 | tozasertib -0.046 | [7] -0.001 | doramapimod 0.025 | ispinesib -0.107

HSPB1 (UniProt P04792)
inactive: [1] -0.024 | filanesib 0.075 | zotarolimus 0.017 | idasanutlin 0.036 | alisertib 0.097 | [2] -0.039 | gefitinib 0.035 | [3] -0.105 | lapatinib -0.02 | pictilisib -0.019 | [4] 0.027 | crizotinib 0.048 | [5] -0.03 | [6] 0.026 | duvelisib -0.027 | gandotinib -0.005 | tozasertib 0.059 | [7] 0.02 | doramapimod 0.164 | ispinesib -0.031

HIRIP3 (UniProt Q9BW71)
inactive: [1] -0.044 | filanesib -0.016 | zotarolimus 0.031 | idasanutlin -0.049 | alisertib -0.031 | [2] -0.049 | gefitinib 0.003 | [3] 0.02 | lapatinib -0.006 | pictilisib -0.024 | [4] -0.01 | crizotinib 0.056 | [5] 0.08 | [6] -0.068 | duvelisib -0.017 | gandotinib 0.007 | tozasertib 0.019 | [7] 0.02 | doramapimod -0.016 | ispinesib -0.003

HSD17B7 (UniProt P56937)
inactive: [1] 0.074 | filanesib -0.114 | zotarolimus 0.034 | idasanutlin -0.111 | alisertib -0.118 | [2] -0.024 | gefitinib 0.01 | [3] 0.092 | lapatinib 0.128 | pictilisib 0.045 | [4] 0.009 | crizotinib -0.092 | [5] 0.064 | [6] -0.072 | duvelisib 0.043 | gandotinib -0.08 | tozasertib -0.076 | [7] 0 | doramapimod -0.086 | ispinesib -0.085

HSD17B11 (UniProt Q8NBQ5)
inactive: [1] -0.022 | filanesib -0.058 | zotarolimus 0.003 | idasanutlin -0.031 | alisertib -0.033 | [2] 0.093 | gefitinib 0.011 | [3] 0.041 | lapatinib 0.023 | pictilisib 0.008 | [4] 0.007 | crizotinib 0.061 | [5] 0.002 | [6] -0.115 | duvelisib 0.047 | gandotinib 0.056 | tozasertib -0.02 | [7] -0.004 | doramapimod 0.004 | ispinesib 0.128

HMGN3 (UniProt Q15651)
inactive: [1] 0.066 | filanesib 0.08 | zotarolimus -0.004 | idasanutlin 0.11 | alisertib -0.044 | [2] -0.115 | gefitinib -0.026 | [3] 0.009 | lapatinib -0.082 | pictilisib -0.132 | [4] 0 | crizotinib -0.095 | [5] -0.222 | [6] -0.192 | duvelisib -0.128 | gandotinib 0.065 | tozasertib 0.069 | [7] -0.012 | doramapimod -0.006 | ispinesib -0.038

HGS (UniProt O14964)
inactive: [1] 0.03 | filanesib -0.086 | zotarolimus 0.038 | idasanutlin -0.032 | alisertib -0.062 | [2] 0.027 | gefitinib 0.032 | [3] -0.015 | lapatinib -0.016 | pictilisib 0.036 | [4] -0.012 | crizotinib 0.005 | [5] 0.038 | [6] -0.019 | duvelisib 0.005 | gandotinib -0.038 | tozasertib 0.049 | [7] -0.008 | doramapimod -0.033 | ispinesib -0.027

HUWE1 (UniProt Q7Z6Z7)
inactive: [1] -0.001 | filanesib -0.007 | zotarolimus 0.037 | idasanutlin -0.077 | alisertib -0.073 | [2] -0.023 | gefitinib -0.014 | [3] -0.031 | lapatinib 0.021 | pictilisib -0.031 | [4] -0.002 | crizotinib -0.03 | [5] 0.003 | [6] -0.007 | duvelisib 0.005 | gandotinib -0.084 | tozasertib 0.041 | [7] 0.051 | doramapimod 0.007 | ispinesib 0.011

HYOU1 (UniProt Q9Y4L1)
inactive: [1] -0.036 | filanesib 0.016 | zotarolimus 0.044 | idasanutlin 0.032 | alisertib -0.098 | [2] -0.038 | gefitinib -0.001 | [3] -0.072 | lapatinib -0.036 | pictilisib -0.046 | [4] -0.025 | crizotinib 0.018 | [5] -0.028 | [6] 0.076 | duvelisib -0.05 | gandotinib 0.028 | tozasertib 0.022 | [7] 0.032 | doramapimod 0.029 | ispinesib -0.003

HNRNPD isoform 4 (UniProt Q14103)
inactive: [1] 0.023 | filanesib 0.29 | zotarolimus -0.038 | idasanutlin 0.051 | alisertib -0.176 | [2] -0.151 | gefitinib -0.036 | [3] -0.122 | lapatinib 0.031 | pictilisib -0.13 | [4] -0.046 | crizotinib -0.105 | [5] -0.39 | [6] 0.218 | duvelisib -0.112 | gandotinib 0.246 | tozasertib 0.01 | [7] -0.178 | doramapimod 0.052 | ispinesib 0.184

HUS1 (UniProt O60921)
inactive: [1] -0.041 | filanesib -0.062 | zotarolimus 0.015 | idasanutlin -0.089 | alisertib 0.015 | [2] 0.008 | gefitinib 0.013 | [3] 0.001 | lapatinib 0.001 | pictilisib 0.111 | [4] -0.019 | crizotinib 0.017 | [5] 0.047 | [6] -0.047 | duvelisib 0.012 | gandotinib -0.073 | tozasertib -0.019 | [7] -0.002 | doramapimod -0.003 | ispinesib 0.013

HSDL1 (UniProt Q3SXM5)
inactive: [1] -0.092 | filanesib -0.057 | zotarolimus 0.049 | idasanutlin 0.01 | alisertib -0.044 | [2] 0.046 | gefitinib 0.004 | [3] 0.053 | lapatinib -0.032 | pictilisib 0.066 | [4] -0.002 | crizotinib 0.042 | [5] 0.058 | [6] -0.062 | duvelisib 0.065 | gandotinib -0.041 | tozasertib 0.003 | [7] -0.041 | doramapimod 0.047 | ispinesib 0.042

HSPB11 (UniProt Q9Y547)
inactive: [1] 0.025 | filanesib -0.062 | zotarolimus -0.005 | idasanutlin -0.058 | alisertib -0.019 | [2] -0.058 | gefitinib 0.023 | [3] -0.027 | lapatinib 0.01 | pictilisib 0.137 | [4] 0.024 | crizotinib 0.007 | [5] 0.025 | [6] -0.022 | duvelisib 0.128 | gandotinib -0.243 | tozasertib 0.017 | [7] 0.048 | doramapimod 0.004 | ispinesib 0.111

HSD17B4 (UniProt P51659)
inactive: [1] 0.007 | filanesib -0.033 | zotarolimus 0.006 | idasanutlin 0.01 | alisertib -0.033 | [2] -0.002 | gefitinib 0.048 | [3] -0.001 | lapatinib 0.033 | pictilisib 0.017 | [4] 0.033 | crizotinib 0.084 | [5] 0.031 | [6] -0.048 | duvelisib 0.007 | gandotinib -0.015 | tozasertib 0.001 | [7] 0.016 | doramapimod 0.002 | ispinesib 0.092

HNRNPA0 (UniProt Q13151)
inactive: [1] -0.045 | filanesib 0.22 | zotarolimus -0.056 | idasanutlin 0.112 | alisertib -0.031 | [2] 0.047 | gefitinib 0.068 | [3] -0.003 | lapatinib 0.075 | pictilisib -0.019 | [4] -0.113 | crizotinib -0.095 | [5] 0.057 | [6] 0.343 | duvelisib -0.009 | gandotinib 0.175 | tozasertib 0.027 | [7] 0.016 | doramapimod 0.077
